{
  "sequences": {"note": "Amino acid sequences for entries named in this document (tags omitted).", "UniProt Q4U2R1": "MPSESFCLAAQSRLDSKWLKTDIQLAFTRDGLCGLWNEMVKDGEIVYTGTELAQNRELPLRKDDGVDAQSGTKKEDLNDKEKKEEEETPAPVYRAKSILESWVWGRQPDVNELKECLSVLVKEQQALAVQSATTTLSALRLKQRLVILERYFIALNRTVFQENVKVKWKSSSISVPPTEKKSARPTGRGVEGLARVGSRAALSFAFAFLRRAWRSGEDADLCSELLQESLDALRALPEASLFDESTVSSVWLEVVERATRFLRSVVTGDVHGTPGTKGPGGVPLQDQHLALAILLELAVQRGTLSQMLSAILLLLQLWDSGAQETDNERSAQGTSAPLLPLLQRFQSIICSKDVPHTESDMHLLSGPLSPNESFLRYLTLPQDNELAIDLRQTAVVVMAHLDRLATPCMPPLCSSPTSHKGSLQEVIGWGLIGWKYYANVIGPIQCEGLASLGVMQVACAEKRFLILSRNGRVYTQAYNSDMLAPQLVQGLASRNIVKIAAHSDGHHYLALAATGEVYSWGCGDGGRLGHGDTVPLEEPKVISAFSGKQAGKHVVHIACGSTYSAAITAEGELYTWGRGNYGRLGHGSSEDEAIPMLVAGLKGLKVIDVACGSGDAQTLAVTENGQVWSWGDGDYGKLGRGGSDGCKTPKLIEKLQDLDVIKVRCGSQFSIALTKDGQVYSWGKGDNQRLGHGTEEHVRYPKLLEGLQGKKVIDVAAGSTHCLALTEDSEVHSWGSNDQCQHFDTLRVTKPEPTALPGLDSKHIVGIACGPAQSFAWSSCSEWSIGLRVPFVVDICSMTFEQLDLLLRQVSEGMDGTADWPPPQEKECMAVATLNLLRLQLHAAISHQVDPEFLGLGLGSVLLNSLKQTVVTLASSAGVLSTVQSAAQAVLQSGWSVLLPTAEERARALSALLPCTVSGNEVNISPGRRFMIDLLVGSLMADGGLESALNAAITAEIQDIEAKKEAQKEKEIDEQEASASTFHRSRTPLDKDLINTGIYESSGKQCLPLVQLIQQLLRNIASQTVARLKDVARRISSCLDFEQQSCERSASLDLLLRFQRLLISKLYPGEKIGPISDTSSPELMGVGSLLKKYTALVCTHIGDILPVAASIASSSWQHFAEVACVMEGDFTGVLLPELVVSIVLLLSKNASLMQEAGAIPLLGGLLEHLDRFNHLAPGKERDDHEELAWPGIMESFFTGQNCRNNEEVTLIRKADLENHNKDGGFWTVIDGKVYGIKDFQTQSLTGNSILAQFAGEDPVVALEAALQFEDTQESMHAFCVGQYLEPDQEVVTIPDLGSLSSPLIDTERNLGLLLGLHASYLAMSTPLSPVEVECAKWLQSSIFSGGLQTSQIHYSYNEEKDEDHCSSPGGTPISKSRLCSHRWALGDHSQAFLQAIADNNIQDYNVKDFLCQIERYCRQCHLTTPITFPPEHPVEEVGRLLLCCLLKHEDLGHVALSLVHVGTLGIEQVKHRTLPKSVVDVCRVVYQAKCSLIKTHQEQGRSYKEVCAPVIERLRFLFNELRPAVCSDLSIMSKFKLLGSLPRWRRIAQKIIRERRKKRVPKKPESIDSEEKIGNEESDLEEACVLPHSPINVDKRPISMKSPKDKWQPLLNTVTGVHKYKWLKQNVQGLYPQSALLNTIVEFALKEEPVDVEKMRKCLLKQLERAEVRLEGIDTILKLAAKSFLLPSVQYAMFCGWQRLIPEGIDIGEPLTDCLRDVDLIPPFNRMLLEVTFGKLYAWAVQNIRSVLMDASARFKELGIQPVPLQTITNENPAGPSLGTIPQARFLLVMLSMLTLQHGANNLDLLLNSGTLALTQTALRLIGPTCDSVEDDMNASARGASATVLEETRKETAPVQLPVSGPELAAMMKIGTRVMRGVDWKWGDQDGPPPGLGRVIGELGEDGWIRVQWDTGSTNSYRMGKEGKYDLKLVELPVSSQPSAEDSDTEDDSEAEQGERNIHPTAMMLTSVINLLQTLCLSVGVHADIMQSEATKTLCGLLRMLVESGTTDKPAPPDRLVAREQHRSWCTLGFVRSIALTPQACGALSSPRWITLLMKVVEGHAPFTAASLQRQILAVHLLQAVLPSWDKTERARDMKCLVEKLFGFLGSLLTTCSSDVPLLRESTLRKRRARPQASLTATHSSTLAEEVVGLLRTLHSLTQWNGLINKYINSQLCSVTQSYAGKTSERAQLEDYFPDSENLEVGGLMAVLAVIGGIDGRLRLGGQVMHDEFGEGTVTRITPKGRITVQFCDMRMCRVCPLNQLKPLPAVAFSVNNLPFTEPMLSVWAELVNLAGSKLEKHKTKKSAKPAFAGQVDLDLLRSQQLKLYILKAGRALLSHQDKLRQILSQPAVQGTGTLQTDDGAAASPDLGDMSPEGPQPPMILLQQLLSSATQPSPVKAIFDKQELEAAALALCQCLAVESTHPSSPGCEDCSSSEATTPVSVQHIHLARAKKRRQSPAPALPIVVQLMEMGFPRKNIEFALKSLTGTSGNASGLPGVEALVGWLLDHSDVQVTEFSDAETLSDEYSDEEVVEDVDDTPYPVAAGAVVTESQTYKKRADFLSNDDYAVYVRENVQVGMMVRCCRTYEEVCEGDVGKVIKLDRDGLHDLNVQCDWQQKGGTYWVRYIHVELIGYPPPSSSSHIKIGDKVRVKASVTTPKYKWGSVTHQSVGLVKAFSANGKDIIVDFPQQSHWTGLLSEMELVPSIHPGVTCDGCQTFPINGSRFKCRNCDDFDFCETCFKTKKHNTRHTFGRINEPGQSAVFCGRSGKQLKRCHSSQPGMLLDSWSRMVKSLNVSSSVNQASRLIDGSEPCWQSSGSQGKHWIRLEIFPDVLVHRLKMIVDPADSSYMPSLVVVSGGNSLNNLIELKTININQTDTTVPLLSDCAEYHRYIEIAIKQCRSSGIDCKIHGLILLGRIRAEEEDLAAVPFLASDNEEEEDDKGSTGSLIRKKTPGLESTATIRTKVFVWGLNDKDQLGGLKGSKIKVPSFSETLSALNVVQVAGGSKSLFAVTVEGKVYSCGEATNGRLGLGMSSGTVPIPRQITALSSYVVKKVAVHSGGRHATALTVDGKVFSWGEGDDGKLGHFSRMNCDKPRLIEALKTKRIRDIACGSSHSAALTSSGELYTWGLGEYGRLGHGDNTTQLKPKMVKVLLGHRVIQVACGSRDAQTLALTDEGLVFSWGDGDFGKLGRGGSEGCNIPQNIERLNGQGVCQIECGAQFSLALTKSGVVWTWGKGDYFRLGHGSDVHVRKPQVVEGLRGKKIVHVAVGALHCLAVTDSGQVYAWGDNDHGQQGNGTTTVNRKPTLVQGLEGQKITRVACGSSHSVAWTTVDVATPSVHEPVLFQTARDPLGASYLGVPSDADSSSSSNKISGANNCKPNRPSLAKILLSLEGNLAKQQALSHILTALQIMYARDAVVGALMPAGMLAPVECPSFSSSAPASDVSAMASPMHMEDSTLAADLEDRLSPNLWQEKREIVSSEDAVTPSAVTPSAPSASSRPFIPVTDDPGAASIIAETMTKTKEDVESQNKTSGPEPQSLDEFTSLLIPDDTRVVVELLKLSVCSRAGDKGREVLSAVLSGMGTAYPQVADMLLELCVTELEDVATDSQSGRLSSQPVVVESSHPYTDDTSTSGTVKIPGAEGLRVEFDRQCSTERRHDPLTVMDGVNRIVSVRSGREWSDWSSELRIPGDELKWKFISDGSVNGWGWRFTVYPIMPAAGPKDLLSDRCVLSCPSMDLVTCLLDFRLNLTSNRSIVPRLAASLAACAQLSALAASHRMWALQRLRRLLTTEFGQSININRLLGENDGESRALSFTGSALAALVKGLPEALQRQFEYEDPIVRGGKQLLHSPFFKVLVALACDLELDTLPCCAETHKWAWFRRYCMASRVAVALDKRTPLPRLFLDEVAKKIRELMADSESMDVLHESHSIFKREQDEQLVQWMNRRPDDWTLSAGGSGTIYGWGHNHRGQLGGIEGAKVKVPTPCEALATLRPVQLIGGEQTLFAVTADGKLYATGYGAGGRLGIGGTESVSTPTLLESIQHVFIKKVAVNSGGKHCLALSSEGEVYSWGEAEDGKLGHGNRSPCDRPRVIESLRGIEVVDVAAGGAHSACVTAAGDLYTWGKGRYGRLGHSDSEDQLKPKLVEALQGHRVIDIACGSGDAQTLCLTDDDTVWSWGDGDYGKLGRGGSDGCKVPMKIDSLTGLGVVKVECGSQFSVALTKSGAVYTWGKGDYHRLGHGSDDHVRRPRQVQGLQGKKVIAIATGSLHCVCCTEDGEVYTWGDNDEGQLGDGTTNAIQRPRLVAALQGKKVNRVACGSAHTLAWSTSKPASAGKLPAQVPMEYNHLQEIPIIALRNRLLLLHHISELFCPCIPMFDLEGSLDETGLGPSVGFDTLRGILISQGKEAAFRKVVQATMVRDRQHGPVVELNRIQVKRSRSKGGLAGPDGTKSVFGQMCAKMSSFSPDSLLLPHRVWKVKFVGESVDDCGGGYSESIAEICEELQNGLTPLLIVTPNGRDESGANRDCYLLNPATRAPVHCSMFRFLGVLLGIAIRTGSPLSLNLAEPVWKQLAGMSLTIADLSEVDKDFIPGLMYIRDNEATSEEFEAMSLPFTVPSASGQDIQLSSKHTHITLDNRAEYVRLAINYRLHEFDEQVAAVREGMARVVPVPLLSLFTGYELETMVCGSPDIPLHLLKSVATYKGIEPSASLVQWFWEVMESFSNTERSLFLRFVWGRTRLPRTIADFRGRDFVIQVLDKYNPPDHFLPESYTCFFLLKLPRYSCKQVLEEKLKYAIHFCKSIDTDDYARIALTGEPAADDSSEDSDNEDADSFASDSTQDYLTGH", "UniProt Q3UP24": "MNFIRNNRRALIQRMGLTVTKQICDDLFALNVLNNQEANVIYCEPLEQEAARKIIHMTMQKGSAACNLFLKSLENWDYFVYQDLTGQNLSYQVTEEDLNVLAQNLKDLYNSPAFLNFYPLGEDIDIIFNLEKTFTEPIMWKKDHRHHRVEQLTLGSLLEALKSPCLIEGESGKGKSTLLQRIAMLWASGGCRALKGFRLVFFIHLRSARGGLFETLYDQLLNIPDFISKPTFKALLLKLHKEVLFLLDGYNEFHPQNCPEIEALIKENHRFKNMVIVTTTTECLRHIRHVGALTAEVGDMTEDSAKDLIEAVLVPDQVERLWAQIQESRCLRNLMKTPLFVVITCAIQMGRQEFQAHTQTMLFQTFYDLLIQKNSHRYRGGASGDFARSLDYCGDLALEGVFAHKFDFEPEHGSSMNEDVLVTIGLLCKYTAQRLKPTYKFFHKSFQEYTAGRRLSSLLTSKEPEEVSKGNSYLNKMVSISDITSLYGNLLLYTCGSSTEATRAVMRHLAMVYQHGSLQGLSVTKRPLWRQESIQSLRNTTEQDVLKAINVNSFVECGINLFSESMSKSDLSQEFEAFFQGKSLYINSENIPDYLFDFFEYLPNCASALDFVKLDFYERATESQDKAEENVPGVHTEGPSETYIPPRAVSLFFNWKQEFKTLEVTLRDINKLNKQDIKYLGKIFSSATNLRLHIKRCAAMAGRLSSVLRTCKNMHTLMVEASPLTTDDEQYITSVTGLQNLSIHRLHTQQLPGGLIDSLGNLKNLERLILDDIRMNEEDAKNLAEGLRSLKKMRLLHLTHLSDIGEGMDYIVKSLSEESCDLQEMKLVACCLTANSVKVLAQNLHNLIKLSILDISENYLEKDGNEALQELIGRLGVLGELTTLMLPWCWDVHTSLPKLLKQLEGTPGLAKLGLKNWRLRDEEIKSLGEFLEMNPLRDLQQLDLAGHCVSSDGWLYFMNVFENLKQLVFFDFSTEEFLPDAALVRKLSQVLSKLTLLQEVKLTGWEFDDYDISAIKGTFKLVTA"},
  "source": "paper PMC8048261",
  "target": "HERC2 (E3 ubiquitin ligase) (mouse (endogenous in BV-2)) (UniProt Q4U2R1)",
  "test": "co-IP; supernatant of BV-2 cell lysate (RIPA lysis buffer with protease inhibitors); anti-HERC2 antibody and protein A agarose beads overnight at 4 °C; washed 3 times with lysis buffer; NLRC4 detected by Western blotting",
  "note": "No constants are given. Whether binding was seen depends on the method and setting. In cells and extracts the contact can be indirect. Some binding calls cover weakened binding; strength is not graded here.",
  "data": [
    {"substance": "NLR-family CARD-containing protein 4 (NLRC4) (from UniProt Q3UP24 1-1024)", "values": [
      {"measurement": "binding", "result": "binds"}
    ]}
  ]
}
